Reference: article PMC5897371
No constants are given. Whether binding was seen depends on the method and setting. Binding seen in cells or lysates may run through a third protein. Some binding calls cover weakened binding; strength is not graded here.

The chains behind the UniProt entries cited, without tags or fusion partners. Where a name states a change or a piece, a line headed by the entry shows the natural chain unless it says otherwise. A line that says so, or that is headed by a name, gives the form on record, which may keep a tag or linker.
UniProt Q62318: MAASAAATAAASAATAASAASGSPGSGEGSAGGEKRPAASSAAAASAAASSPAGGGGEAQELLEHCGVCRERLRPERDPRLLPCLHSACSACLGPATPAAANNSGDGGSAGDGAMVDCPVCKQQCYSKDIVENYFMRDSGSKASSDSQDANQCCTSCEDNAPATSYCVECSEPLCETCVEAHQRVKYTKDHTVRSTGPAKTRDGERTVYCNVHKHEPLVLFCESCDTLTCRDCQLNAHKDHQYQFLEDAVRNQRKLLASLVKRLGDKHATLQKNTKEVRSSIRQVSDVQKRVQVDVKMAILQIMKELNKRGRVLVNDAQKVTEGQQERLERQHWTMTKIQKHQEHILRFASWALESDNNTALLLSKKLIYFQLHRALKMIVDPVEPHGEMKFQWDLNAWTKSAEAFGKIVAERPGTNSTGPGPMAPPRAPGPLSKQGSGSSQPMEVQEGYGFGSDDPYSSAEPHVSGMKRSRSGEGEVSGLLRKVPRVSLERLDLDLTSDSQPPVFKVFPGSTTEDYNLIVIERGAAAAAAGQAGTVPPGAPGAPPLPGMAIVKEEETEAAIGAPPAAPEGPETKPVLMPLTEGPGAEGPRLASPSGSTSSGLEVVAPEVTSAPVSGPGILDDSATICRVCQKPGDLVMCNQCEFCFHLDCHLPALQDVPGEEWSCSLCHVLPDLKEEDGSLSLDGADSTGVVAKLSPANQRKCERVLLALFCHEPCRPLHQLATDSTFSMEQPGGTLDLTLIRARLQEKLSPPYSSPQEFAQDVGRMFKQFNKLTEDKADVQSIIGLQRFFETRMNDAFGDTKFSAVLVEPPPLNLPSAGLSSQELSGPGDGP
RAR-related orphan receptor gamma (RORγt) (P51450-2, form named): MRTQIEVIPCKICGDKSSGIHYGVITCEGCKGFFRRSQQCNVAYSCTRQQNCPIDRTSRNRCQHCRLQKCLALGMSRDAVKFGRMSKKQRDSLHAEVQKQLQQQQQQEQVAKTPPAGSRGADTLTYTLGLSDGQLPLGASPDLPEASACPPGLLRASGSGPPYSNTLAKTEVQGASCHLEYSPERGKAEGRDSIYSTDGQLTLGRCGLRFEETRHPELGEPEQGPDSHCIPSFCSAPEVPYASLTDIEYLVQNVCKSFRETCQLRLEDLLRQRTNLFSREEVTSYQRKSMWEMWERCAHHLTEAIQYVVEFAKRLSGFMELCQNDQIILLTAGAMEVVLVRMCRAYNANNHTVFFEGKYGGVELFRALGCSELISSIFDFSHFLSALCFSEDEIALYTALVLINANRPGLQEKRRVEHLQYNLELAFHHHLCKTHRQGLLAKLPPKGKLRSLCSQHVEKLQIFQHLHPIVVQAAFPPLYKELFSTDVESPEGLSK
UniProt P42227: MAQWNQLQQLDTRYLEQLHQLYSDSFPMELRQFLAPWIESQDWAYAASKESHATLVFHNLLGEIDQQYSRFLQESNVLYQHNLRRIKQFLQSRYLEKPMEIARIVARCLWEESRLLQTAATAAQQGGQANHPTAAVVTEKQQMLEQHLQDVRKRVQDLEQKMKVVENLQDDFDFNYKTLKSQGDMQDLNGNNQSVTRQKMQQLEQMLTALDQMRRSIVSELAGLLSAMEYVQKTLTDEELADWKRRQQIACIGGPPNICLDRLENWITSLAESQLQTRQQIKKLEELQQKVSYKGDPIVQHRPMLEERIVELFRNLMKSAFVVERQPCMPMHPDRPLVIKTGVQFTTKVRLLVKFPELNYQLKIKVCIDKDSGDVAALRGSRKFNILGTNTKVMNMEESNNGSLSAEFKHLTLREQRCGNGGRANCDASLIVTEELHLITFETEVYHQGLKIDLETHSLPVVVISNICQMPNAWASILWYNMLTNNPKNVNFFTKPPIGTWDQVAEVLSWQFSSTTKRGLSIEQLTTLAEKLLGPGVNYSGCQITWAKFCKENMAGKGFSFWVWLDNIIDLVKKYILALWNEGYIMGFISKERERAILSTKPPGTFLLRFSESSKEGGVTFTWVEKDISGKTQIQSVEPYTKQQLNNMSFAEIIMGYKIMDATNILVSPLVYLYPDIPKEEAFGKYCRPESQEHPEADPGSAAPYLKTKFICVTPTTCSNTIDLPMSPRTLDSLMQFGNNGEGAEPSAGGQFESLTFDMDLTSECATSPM

Biological target: Tripartite motif containing 28 (TRIM28) (mouse (endogenous in Th17 cells)) (UniProt Q62318)
Experiment: co-IP; endogenous proteins; Th17 cells (2×10^7, TGF-β and IL-6, 3 days) lysed in 25 mM Tris pH 7.4, 150 mM NaCl, 1 mM EDTA, 1% NP-40, 5% glycerol, sonicated; anti-TRIM28 antibody or control IgG, 4 °C overnight, Dynabeads protein G; immunoblot for RORγt and STAT3

| binding | Substance |
| --- | --- |
| binds | RAR-related orphan receptor gamma (RORγt) (from UniProt P51450-2 1-495) |
| binds | signal transducer and activator of transcription 3 (STAT3) (from UniProt P42227 1-770) |
